According to the supplement of paper PMC12578635:
The other results are listed elsewhere or left out. Rule as the data show it: active = 150% or more and inactive = the rest. Many values rest on one well or one pass, so single values are uncertain.

Test system: Staphylococcus aureus JE2-lux inside RAW 264.7 macrophages
Assay: intracellular bacterial bioluminescence relative to DMSO vehicle; higher = higher intracellular bacterial metabolic activity
Conditions: 10 µM; treatment time 4 h; gentamicin 50 µg/ml

SMILES | intracellular bacterial bioluminescence
Cc1cc2c(o1)CCc1sc(N(C)C(=O)Cc3ccccc3F)nc1-2 | inactive: 83.5%
Cc1ccccc1C(=O)n1nc(-c2ccccc2)nc1N | inactive: 92%
Cc1nc(-c2cccc(NS(=O)(=O)c3ccc4ccccc4c3)c2)cs1 | inactive: 114%
Cc1cccc(C(=O)Nc2cnc(N3CCN(c4ncnc5ccccc45)CC3)c(C(=O)O)c2)c1 | inactive: 87.7%
Cc1ccc(-c2csc(NC(=O)CSc3nncc(=O)[nH]3)n2)cc1 | inactive: 92%
Cc1n[nH]c(C)c1S(=O)(=O)NCCOc1ccc(-c2cccs2)nn1 | inactive: 109%
O=C(c1ccccc1)c1c2c3c(ccc(S(=O)(=O)O)c3[nH]c1=O)C(=O)c1ccccc1-2 | inactive: 116%
O=C(Nc1nc2ccc3ccccc3c2s1)c1coc2ccccc2c1=O | inactive: 107%
Clc1ccc2[nH]c3nc(SCc4nnc(-c5ccccc5)o4)nnc3c2c1 | inactive: 100%
C=CCOc1ccccc1NC(=O)c1[nH]nc2c1CCCCC2 | inactive: 105%
O=C(CCCc1ccccc1)Nc1c(C(=O)Nc2ccc3c(c2)OCCO3)oc2ccccc12 | inactive: 106%
CCOc1cccc(-c2cc(C(=O)N/N=C/c3ccccn3)[nH]n2)c1 | inactive: 100%
COc1ccc(CCn2nc(-c3cccnc3)oc2=O)cc1 | inactive: 57%
Cc1ccccc1OCC(=O)Nc1c(C(=O)Nc2ccc([N+](=O)[O-])cc2)oc2ccccc12 | inactive: 103%
Cc1ccc(Cn2c(=O)c3nc(C(=O)NCc4ccco4)nn3c3ccc(C)cc32)cc1 | inactive: 39.1%
Cc1ccc(S(=O)(=O)Nc2ccc(O)c3ncccc23)cc1 | inactive: 94%
COc1ccc(CCNC(=O)c2cc(-c3ccc(F)cc3)nc3[nH]nc(-c4ccccc4)c23)cc1OC | inactive: 88.5%
COc1ccc(CCNc2ncnc(N)c2[N+](=O)[O-])cc1OC | inactive: 73.8%
CSc1cccc(NC(=O)Cn2cccc2-c2nc(-c3ccccc3)cs2)c1 | inactive: 80.1%
Cc1ccc(CCC(=O)Nc2ccc(Cl)c([N+](=O)[O-])c2)o1 | inactive: 42.2%
O=C(CSc1nnc2n(Cc3ccccc3F)c3ccccc3n12)NC1CCCCC1 | inactive: 60.2%
CCOC(=O)c1cc(C)nc2c1c(=O)n(Cc1nc(-c3ccc(Cl)cc3)oc1C)c(=O)n2C | inactive: 102%
COc1ccc(NC(=O)CC2SC(=N)NC2=O)cc1Cl (stereo unspecified) | inactive: 86.8%

SMILES | intracellular bacterial bioluminescence
O=C(COC(=O)c1ccc2ccccc2n1)c1ccc(Cl)c(Cl)c1 | inactive: 116%
N#Cc1c(N)nc(SCC(=O)c2ccc(Br)cc2)c(C#N)c1-c1cccs1 | inactive: 111%
COc1ccc(C2C(C#N)=C(SCC(=O)Nc3ccccc3C)NC3=C2C(=O)CC(C)(C)C3)cc1 (stereo unspecified) | inactive: 87.2%
Cc1ccc2c(c1)C(O)(CC(=O)c1ccc(C)s1)C(=O)N2 (stereo unspecified) | inactive: 103%
Clc1ccccc1-n1cc(-c2ccccc2)c2c(NCc3ccco3)ncnc21 | inactive: 70%
COc1ccc(Nc2ncnc3sc(C(=O)O)c(C)c23)c(OC)c1 | inactive: 102%
CC1(C)CC(=O)c2sc(NC(=O)c3ccc(NS(=O)(=O)c4ccc(Cl)cc4)cc3)nc2C1 | inactive: 119%
Cc1ccc(NC(=O)CSc2ccnc3c2c(=O)n(C)c(=O)n3C)cc1Cl | inactive: 107%
Cc1ccc2oc(SCc3noc(CCC(=O)Nc4nncs4)n3)nc2c1 | inactive: 102%
COc1ccccc1NC(=O)CCCn1c(=S)[nH]c2ccccc2c1=O | inactive: 14.9%
COc1ccc(-c2nc3c4c(C)c(C)n(C5CCCCC5)c4ncn3n2)cc1 | inactive: 132%
Cc1nnc(SCC(=O)N2CCc3ccccc32)[nH]c1=O | inactive: 109%
Cc1nn(-c2ccccc2)c2sc(C(=O)NCCc3ccccc3)cc12 | inactive: 113%
O=C(O)c1cccnc1SC1CC(=O)N(CCc2ccccc2)C1=O (stereo unspecified) | inactive: 113%
Cn1cc(C(=O)Nc2nccs2)c2nn(-c3ccccc3)c(=O)c-2c1 | inactive: 110%
COc1ccc(Cl)cc1NC(=O)CSC1=NS(=O)(=O)c2cc(F)ccc2N1 | inactive: 126%
CCCS(=O)(=O)N1CCN(c2cc(N(C)C)nc(C)n2)CC1 | inactive: 98.4%
Cc1cc(C)c2sc(N3CCN(c4ccccc4)CC3)nc2c1 | inactive: 92%
Cc1onc(-c2ccncc2)c1C(=O)NCC(c1ccc(F)cc1)N1CCCC1 (stereo unspecified) | inactive: 87.3%
O=C(c1ccco1)N(CCCn1ccnc1)c1nc2ccc(Br)cc2s1 | inactive: 93.7%
O=c1[nH]c(=O)c2cc(S(=O)(=O)Nc3cccc(-c4ccc(F)cc4)c3)ccc2[nH]1 | inactive: 88.2%
COC(=O)COC(=O)c1cnn2c(C(F)(F)F)cc(-c3ccc(C)cc3)nc12 | inactive: 90.5%
Cc1sc(NC(=O)CN(Cc2ccccc2)C(=O)c2ccco2)c(C(N)=O)c1C | inactive: 89.1%

16 structures already listed, ordered by heavy-atom count, low to high:
SMILES | intracellular bacterial bioluminescence
COc1ccc(NC(=O)CC2SC(=N)NC2=O)cc1Cl (stereo unspecified) | inactive: 86.8%
Cc1nnc(SCC(=O)N2CCc3ccccc32)[nH]c1=O | inactive: 109%
CCCS(=O)(=O)N1CCN(c2cc(N(C)C)nc(C)n2)CC1 | inactive: 98.4%
C=CCOc1ccccc1NC(=O)c1[nH]nc2c1CCCCC2 | inactive: 105%
O=C(COC(=O)c1ccc2ccccc2n1)c1ccc(Cl)c(Cl)c1 | inactive: 116%
Cn1cc(C(=O)Nc2nccs2)c2nn(-c3ccccc3)c(=O)c-2c1 | inactive: 110%
O=C(c1ccco1)N(CCCn1ccnc1)c1nc2ccc(Br)cc2s1 | inactive: 93.7%
O=C(Nc1nc2ccc3ccccc3c2s1)c1coc2ccccc2c1=O | inactive: 107%
CSc1cccc(NC(=O)Cn2cccc2-c2nc(-c3ccccc3)cs2)c1 | inactive: 80.1%
Cc1sc(NC(=O)CN(Cc2ccccc2)C(=O)c2ccco2)c(C(N)=O)c1C | inactive: 89.1%
O=C(CSc1nnc2n(Cc3ccccc3F)c3ccccc3n12)NC1CCCCC1 | inactive: 60.2%
CC1(C)CC(=O)c2sc(NC(=O)c3ccc(NS(=O)(=O)c4ccc(Cl)cc4)cc3)nc2C1 | inactive: 119%
Cc1ccccc1OCC(=O)Nc1c(C(=O)Nc2ccc([N+](=O)[O-])cc2)oc2ccccc12 | inactive: 103%
O=C(CCCc1ccccc1)Nc1c(C(=O)Nc2ccc3c(c2)OCCO3)oc2ccccc12 | inactive: 106%
Cc1cccc(C(=O)Nc2cnc(N3CCN(c4ncnc5ccccc45)CC3)c(C(=O)O)c2)c1 | inactive: 87.7%
COc1ccc(CCNC(=O)c2cc(-c3ccc(F)cc3)nc3[nH]nc(-c4ccccc4)c23)cc1OC | inactive: 88.5%

(more compounds)

SMILES | intracellular bacterial bioluminescence
Cc1ccc(C(=O)NC2CC3CCC(C2)N3C(=O)Nc2ccccc2)cc1 (stereo unspecified) | inactive: 112%
Cn1c2c(c(=O)n(C)c1=O)C(c1ccccc1Br)C1=C(CCCC1=O)N2 (stereo unspecified) | inactive: 103%
Cc1nc(N2CCCC2)c2c(C)c(C(=O)Nc3cccc(F)c3)sc2n1 | inactive: 42.6%
COc1ccccc1NC(=O)c1nc(Nc2cccc(C)c2)c2ccccc2n1 | inactive: 91.1%
Cc1ccc(Cn2nnc3c(O)nc(Cn4nnc(-c5ccc(Cl)cc5)n4)nc32)cc1 | active: 166%
Cc1cc(C)nc(NC(=O)CCCn2nnc3cc(S(=O)(=O)N(C)C)ccc32)n1 | inactive: 113%
C=CCOC(=O)C1=C(C)NC(SCC(=O)OCC)=C(C#N)C1c1cccs1 (stereo unspecified) | inactive: 79.1%
CCCc1nc(SCC(=O)c2ccc(Cl)cc2)c2c(=O)n(C)c(=O)n(C)c2n1 | inactive: 97.6%
Cc1ncsc1C(=O)N1CCCC(c2nc3ccccc3c(=O)[nH]2)C1 (stereo unspecified) | inactive: 108%
O=C(CSc1nccc2ccccc12)Nc1c[nH]c2ccccc12 | inactive: 25.6%
O=C(CSc1nccc2ccccc12)Nc1ccccc1C(F)(F)F | inactive: 92.7%
COc1ccc(C(=O)N(Cc2nc3[nH]c(C)cc(=O)n3n2)c2ccc(C)cc2)cc1OC | inactive: 87.6%
CCC(=O)N1CCN(c2nc3ccc(C)cc3cc2-c2noc(-c3ccccc3)n2)CC1 | inactive: 37.5%
CC(C)c1ccc(NC(=O)c2cc(C(F)(F)F)n(C)n2)cc1 | inactive: 91.4%
COc1ccc(NC(=O)C2CCN(c3nc4ccccc4s3)CC2)c(OC)c1 | inactive: 87.5%
COc1cccc(CNC(=O)c2noc3c2CSc2ccccc2-3)c1 | inactive: 65.8%
CC(C)c1ccc2nc(SCC(=O)c3ccc4c(c3)OCCO4)c(C#N)cc2c1 | inactive: 114%
CCn1cc(C2=NOC(C(=O)NCc3ccccn3)C2)c(C)n1 (stereo unspecified) | inactive: 133%
Cc1nn(C)c(C)c1NC(=O)c1ncoc1-c1ccc(F)cc1 | inactive: 98.3%
Cc1cccc2sc(NNC(=O)c3ccc(N(C)C)cc3)nc12 | inactive: 71.6%
O=C1CC(c2ccc(Br)cc2)c2cnn(-c3nc4ccccc4s3)c2N1 (stereo unspecified) | inactive: 113%
Cc1oc(-c2ccno2)cc1S(=O)(=O)Nc1ccc(Br)cc1F | inactive: 86.5%
O=C(Nc1cccc(-c2ccc3nncn3n2)c1)C(c1ccccc1)c1ccccc1 | inactive: 105%

Given as tab-separated lines: entries from further up.
SMILES	intracellular bacterial bioluminescence
Cc1cccc2sc(NNC(=O)c3ccc(N(C)C)cc3)nc12	inactive: 71.6%
O=C1CC(c2ccc(Br)cc2)c2cnn(-c3nc4ccccc4s3)c2N1 (stereo unspecified)	inactive: 113%

The list continues:

SMILES | intracellular bacterial bioluminescence
Cc1nnc(NC(=O)CSc2nnc3ccc(-c4ccncc4)nn23)s1 | inactive: 99.2%
O=C(CC1CCN(C(=O)c2cc3ccccc3[nH]2)CC1)NC1CC1 | inactive: 110%
CCC(C)NC(=O)CSc1nc2cc(C)c(C)cc2cc1C#N (stereo unspecified) | inactive: 124%
O=C(O)CCN1C(=O)C2C3CC(C2C1=O)C1C(c2ccc(Cl)cc2)c2sc(=O)[nH]c2SC31 (stereo unspecified) | inactive: 102%
COc1cc2cc3c(N)c(C(=O)c4ccc5c(c4)OCCO5)sc3nc2cc1OC | inactive: 116%
O=C(NCCCn1ccnc1)c1ncoc1-c1ccccc1C(F)(F)F | inactive: 94.6%
Cc1ccc(Cn2nnc(C(=O)O)c2C(=O)O)cc1 | inactive: 31.3%
CCc1cccc(C)c1NC(=O)Cn1c(=O)cc(C(F)(F)F)c2c(C)nn(C)c21 | inactive: 100%
COC(=O)c1c(-c2cccc(F)c2)noc1NC1CCCc2ccccc21 (stereo unspecified) | inactive: 54.6%
Cc1ccc(/C=C/c2nc(C#N)c(N3CCN(C(=O)COc4ccc(C)cc4)CC3)o2)cc1 | inactive: 93.1%
O=C(CCc1ccccc1)Nc1c2c(nn1-c1ccccc1)CS(=O)(=O)C2 | inactive: 112%
O=C(NCCCSc1nc2ccccc2o1)Nc1ncccn1 | inactive: 59.3%
Nc1cc(-c2ccco2)nn(CC(=O)NCC2COc3ccccc3O2)c1=O (stereo unspecified) | inactive: 80.8%
O=C(CC1C(=O)N(c2ccc(F)cc2)C(=O)N1NC(=O)c1ccccc1)NCc1ccccc1 (stereo unspecified) | inactive: 112%
Cn1c(CN2CCOCC2)nc2cc(NC(=O)C3(C)CCCO3)ccc21 (stereo unspecified) | inactive: 114%
Cc1cc2cc(CNC(=O)NC3CCCCC3)ccc2[nH]1 | inactive: 102%
CC1Cc2nc(SCC(=O)NCC3CCCO3)n(C)c(=O)c2S1 (stereo unspecified) | inactive: 92.1%
CS(=O)(=O)c1ccc2nc(NC(=O)c3ccccc3[N+](=O)[O-])sc2c1 | inactive: 66.7%
Cc1nn(C)c(C)c1CNC(=O)Cn1c(=O)c(=O)n(Cc2ccncc2)c2ncccc21 | inactive: 114%
CCOc1ccc(NC(=O)c2sc3nc4c(cc3c2N)C(=O)CC(C)(C)C4)cc1 | active: 154%
CC(C)(C)C(=O)N1CCC(NS(=O)(=O)c2ccc3c(c2)NC(=O)CO3)CC1 | inactive: 105%
CCN(c1ccccc1)S(=O)(=O)c1ccc2[nH]c(=O)cc(C)c2c1 | inactive: 98.5%
